This assay addresses T1, WW domain-binding protein 2 (endogenous) (human (endogenous in LO2)) (UniProt Q969T9).
T1 sequence: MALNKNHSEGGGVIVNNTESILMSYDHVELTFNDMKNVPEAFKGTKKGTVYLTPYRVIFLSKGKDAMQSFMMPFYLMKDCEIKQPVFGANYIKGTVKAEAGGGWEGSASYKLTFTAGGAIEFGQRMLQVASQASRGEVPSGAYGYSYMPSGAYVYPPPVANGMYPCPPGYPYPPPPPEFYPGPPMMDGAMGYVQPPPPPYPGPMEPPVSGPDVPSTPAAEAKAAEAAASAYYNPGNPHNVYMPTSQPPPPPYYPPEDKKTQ
The assay can be described thus: affinity purification with mass spectrometry; whole protein of LO2 cells incubated with anti-WBP2 antibody overnight; eluate electrophoresed, silver-stained, differing bands cut out for LC-MS/MS; anti-IgG as negative control.

Results are given in words; binding and its absence hold for the method and conditions named. Binding seen in cells or lysates may run through a third protein. These calls come from enrichment with a bait or labelling near it, and not all partners need be listed.

With “AMPK complex (endogenous, LO2 cells) (human (endogenous in LO2))”, the binding entry was “binds”.

(Values after article PMC7930037.)
